# Reference: PubChem BioAssay AID504648 (National Center for Advancing Translational Sciences (NCATS), 2011)
# Hit rate of the full screen: of about 390,000 compounds, about 610 (0.16%) were called active. This list was built around the results that the source calls inconclusive (neither active nor inactive); the mix of calls is not that of the screen. The call rests on the fitted dose curve; in most records, active means well fitted inhibition curve with a large enough effect; inconclusive means small, poorly fitted or top-dose-only effect, or effect the other way, or another doubt; inactive means no such curve, though single readings can be large or run the other way. A potency beside an inconclusive call is a rough fit, not a confirmed value.
# Experiment: Nrf2 qHTS screen for inhibitors: counterscreen for cytotoxicity
# Conditions: A549 ARE-Fluc cells, CellTiter-Fluor viability, 18-24 h; series mostly up to 46 µM
# Summary of the method: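 Cytotoxicity counterscreen: CellTiter-Fluor fluorescence was measured in A549 ARE_Fluc cells after 18-24 h of compound exposure in a concentration series. The subsequent BugLite luminescent read reports ARE-luciferase activity.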
# Potency means the concentration at half of the fitted maximal effect.
row,Compound,Potency
1,CCOc1ccc2nc(NCCNC(=O)c3cc(OC)c(OC)c(OC)c3)c(C#N)cc2c1,"inconclusive: 10.3 µM [activator, partial curve]"
2,C/C(=N\NC(=O)COc1ccc(C)cc1C(C)C)c1ccc(-n2ccnc2)cc1,"inconclusive: 29.1 µM [falling, single point]"
3,COC(=O)c1cc2oc3ccccc3c2n1Cc1c(F)cccc1Cl,inactive
4,COC(=O)c1sc(NC(=O)CSc2nnnn2-c2ccc(C)cc2C)nc1C,inactive
5,COc1ccc(-c2nn(-c3ccccc3)cc2/C=C2/SC(=S)N(CCCC(=O)O)C2=O)c(C)c1,"inconclusive: 25.9 µM [falling, partial curve, poor fit]"
6,COC(=O)c1ccc(Cn2cnc3c(cnn3-c3ccc(F)cc3)c2=O)o1,inactive
7,C/C=C\C=C/C(=O)Nc1cccc(C2=NOC3(C2)C[C@H](C(N)=O)N(C(=O)CC)C3)c1 (stereo partly specified),inactive
8,O=c1c(Cl)c2oc3ccccc3nc-2c2ccccc12,"inconclusive: 32.6 µM [falling, partial curve, poor fit]"
9,COc1ccc(Br)cc1[C@H]1[C@H]2C=CC[C@@H](C)[C@@H]2C(=O)N1Cc1ccccc1,inactive
10,CCCC1N2CC3([N+](=O)[O-])CN1CC([N+](=O)[O-])(C2)C3(C)C (stereo unspecified),inactive
11,O=C(OCC1OC(n2cnc3c(N(C(=O)c4ccccc4)C(=O)c4ccccc4)ncnc32)C(O)C1F)c1ccccc1 (stereo unspecified),"inconclusive: 20.6 µM [falling, single point]"
12,CCc1ccc(S(=O)(=O)N2CCN(Cc3ccco3)CC2)cc1,"inconclusive: 20.6 µM [activator, partial curve, poor fit]"
13,NS(=O)(=O)c1ccc(-c2ccc(/C=C3\SC(=O)NC3=O)o2)cc1,active: 11.6 µM
14,COc1ccc(C(=O)NC(=S)N2CCN(c3ccccc3O)CC2)cc1,"inconclusive: 10.3 µM [falling, partial curve, poor fit]"
15,CC(C)C(=O)Nc1cccc(-c2csc(-c3ccccc3)n2)c1,inactive
16,O=C(C1COc2ccccc2O1)N1CCc2ccccc21 (stereo unspecified),"inconclusive: 6.51 µM [activator, single point]"
17,C=CCn1c(SCc2ccc(C#N)cc2)nnc1-c1cccc(OC)c1,"inconclusive: 18.4 µM [falling, partial curve, poor fit]"
18,COC(=O)C1=C(C)NC(=O)/C1=C\c1ccco1,"inconclusive: 2.91 µM [falling, partial curve, poor fit]"
19,CSc1cccc(Nc2cc(C(=O)NCCCN(Cc3ccccc3)C(C)C)c3ccccc3n2)c1,"inconclusive: 23.1 µM [falling, single point]"
20,CC1(C)C(=O)Nc2ccccc2N1C(=O)COC(=O)Cn1cnc2ccccc2c1=O,"inconclusive: 32.6 µM [activator, partial curve, poor fit]"
21,CC(C)(C)NC(=O)CN(Cc1ccco1)C(=O)CCC(=O)Nc1nccs1,inactive

# An excerpt from above in order of count of non-hydrogen atoms, ascending.
row,Compound,Potency
18,COC(=O)C1=C(C)NC(=O)/C1=C\c1ccco1,"inconclusive: 2.91 µM [falling, partial curve, poor fit]"
10,CCCC1N2CC3([N+](=O)[O-])CN1CC([N+](=O)[O-])(C2)C3(C)C (stereo unspecified),inactive
12,CCc1ccc(S(=O)(=O)N2CCN(Cc3ccco3)CC2)cc1,"inconclusive: 20.6 µM [activator, partial curve, poor fit]"
3,COC(=O)c1cc2oc3ccccc3c2n1Cc1c(F)cccc1Cl,inactive
14,COc1ccc(C(=O)NC(=S)N2CCN(c3ccccc3O)CC2)cc1,"inconclusive: 10.3 µM [falling, partial curve, poor fit]"
7,C/C=C\C=C/C(=O)Nc1cccc(C2=NOC3(C2)C[C@H](C(N)=O)N(C(=O)CC)C3)c1 (stereo partly specified),inactive
20,CC1(C)C(=O)Nc2ccccc2N1C(=O)COC(=O)Cn1cnc2ccccc2c1=O,"inconclusive: 32.6 µM [activator, partial curve, poor fit]"
19,CSc1cccc(Nc2cc(C(=O)NCCCN(Cc3ccccc3)C(C)C)c3ccccc3n2)c1,"inconclusive: 23.1 µM [falling, single point]"
11,O=C(OCC1OC(n2cnc3c(N(C(=O)c4ccccc4)C(=O)c4ccccc4)ncnc32)C(O)C1F)c1ccccc1 (stereo unspecified),"inconclusive: 20.6 µM [falling, single point]"

# Later entries

row,Compound,Potency
1,Cc1c(C(=O)C(C)C)n(C)c2ccccc12,"inconclusive: 32.6 µM [activator, single point]"
2,OC(CSc1c(Cl)cccc1Cl)CN1CCN(c2ccccc2F)CC1 (stereo unspecified),"inconclusive: 29.1 µM [falling, partial curve, poor fit]"
3,CC(=O)Nc1ccc(C=NNc2ccc([N+](=O)[O-])cc2S(=O)(=O)Nc2ccccc2C(=O)O)cc1,"inconclusive: 7.31 µM [falling, partial curve, poor fit]"
4,c1ccc(-c2ccc(C(c3ccccc3)n3ccnc3)cc2)cc1 (stereo unspecified),inactive
5,CCNC(=S)N/N=C(\C)c1ccc2ccccc2c1OC(F)F,"inconclusive: 25.9 µM [activator, partial curve, poor fit]"
6,O=C(O)c1ccccc1NS(=O)(=O)c1ccc(NNC(=S)Nc2ccc(OC(F)F)cc2)c([N+](=O)[O-])c1,"inconclusive: 20.6 µM [falling, single point]"
7,C=CCn1c(COc2ccccc2F)nnc1SCC(=O)Nc1cc2oc3ccccc3c2cc1OC,"inconclusive: 29.1 µM [falling, single point]"
8,CCOC(=O)N1CCC(N(C(=O)Nc2ccc(Cl)c(Cl)c2)C(C)CC)CC1 (stereo unspecified),"inconclusive: 29.1 µM [falling, single point]"
9,CC(C)CCSc1nc(N2CCOCC2)c2c(c1C#N)CC(C)(C)OC2,"inconclusive: 13 µM [falling, partial curve, poor fit]"
10,O=C1c2ccccc2-c2onc3ccc(Oc4ccccc4)c1c23,"inconclusive: 23.1 µM [falling, single point]"
11,CN1CCN(C(c2ccc(Br)cc2)c2cc(Cl)c3cccnc3c2O)CC1 (stereo unspecified),"inconclusive: 29.1 µM [falling, single point]"
12,CCOc1nc(Nc2ccccc2F)nc(OCC)n1,"inconclusive: 0.58 µM [activator, full curve, poor fit]"
13,Cc1cc([N+](=O)[O-])ccc1NCc1ccccc1,"inconclusive: 29.1 µM [falling, single point]"
14,COc1ccc(C(C[N+](=O)[O-])C2(c3ccc(OC)c(OC)c3)C(=O)c3ccccc3C2=O)cc1 (stereo unspecified),"inconclusive: 29.1 µM [falling, single point]"
15,Cc1cccc(/C=C/C(=O)c2cc(Br)ccc(=O)c2O)c1,"inconclusive: 29.1 µM [falling, single point]"
16,COc1cc(C(=O)NCCOc2ccc(C)c(C)c2)cc(OC)c1OC,"inconclusive: 5.8 µM [activator, full curve, poor fit]"
17,CN1CCN(C2=C(Cl)C(=O)c3ccccc3C2=O)CC1,"inconclusive: 23.1 µM [falling, single point]"
18,COc1cc(/C=N/NC(=O)c2ccncc2)ccc1O,"inconclusive: 29.1 µM [activator, partial curve, poor fit]"
19,COc1cc2c(cc1OC)C(C)N(C(=O)c1cc3c(=O)oc4ccc(C)cc4c3s1)CC2 (stereo unspecified),inactive
20,Cc1cc(F)ccc1NC(=O)CCS(=O)(=O)c1cc2c3c(c1)CCN3C(=O)CC2,inactive
